# Source: the supplement of paper PMC8728848
# The other results are listed elsewhere or left out.
# B1: CLC (Homo sapiens), Q9UBD9 (protein)
# chain: MDLRAGDSWGMLACLCTVLWHLPAVPALNRTGDPGPGPSIQKTYDLTRYLEHQLRSLAGTYLNYLGPPFNEPDFNPPRLGAETLPRATVDLEVWRSLNDKLRLTQNYEAYSHLLCYLRGLNRQAATAELRRSLAHFCTSLQGLLGSIAGVMAALGYPLPQPLPGTEPTWTPGPAHSDFLQKMDDFWLLKELQTWLWRSAKDFNRLKKKMQPPAAAVTLHLGAHGF
# What was measured:
# Test in all cases: glycan array binding signal (z-score within array); higher = stronger binding
# Settings in all cases: glycan notation: IUPAC condensed, linker removed
# [1] = biological target: Gal(b1-4)GlcNAc(b1-3)Gal(b1-4)GlcNAc(b1-3)Gal(b1-4)GlcNAc
# Summary of the method: (§1)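 Glycan array binding is given as a within-array Z-score, which can be read as non-binding when negative. The arrays, 3228 of them, came from the Consortium for Functional Glycomics database and were retained only where the protein sequence was available. Z-scores were averaged across arrays of the same protein sequence at different concentrations or buffers and across linkers.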
# [2] = biological target: Gal(b1-4)GlcNAc(b1-3)Gal(b1-4)[Fuc(a1-3)]GlcNAc(b1-3)Gal(b1-4)[Fuc(a1-3)]GlcNAc
# Summary of the method: as §1
# [3] = biological target: Gal(b1-4)GlcNAc(b1-3)GalNAc
# Summary of the method: as §1
# [4] = biological target: Gal(b1-4)GlcNAc(b1-3)[Gal(b1-4)GlcNAc(b1-6)]Gal(b1-4)GlcNAc
# Summary of the method: as §1
# [5] = biological target: Gal(b1-4)GlcNAc(b1-3)[GlcNAc(b1-6)]Gal(b1-4)GlcNAc
# Summary of the method: as §1
# [6] = biological target: Gal(b1-4)GlcNAc(b1-6)Gal(b1-4)GlcNAc
# Summary of the method: as §1
# [7] = biological target: Gal(b1-4)GlcNAc(b1-6)Gal(b1-4)GlcNAc(b1-6)GalNAc
# Summary of the method: as §1
# [8] = biological target: Gal(b1-4)GlcNAc(b1-6)GalNAc
# Summary of the method: as §1
# [9] = biological target: Gal(b1-4)GlcNAc(b1-6)[Gal(b1-3)]GalNAc
# Summary of the method: as §1
# Gal3S(b1-3)GalNAc = biological target: Gal3S(b1-3)GalNAc
# Summary of the method: as §1
# Gal3S(b1-3)GlcNAc = biological target: Gal3S(b1-3)GlcNAc
# Summary of the method: as §1
# [10] = biological target: Gal3S(b1-3)[Fuc(a1-4)]GlcNAc
# Summary of the method: as §1
# Gal3S(b1-4)Glc = biological target: Gal3S(b1-4)Glc
# Summary of the method: as §1
# Gal3S(b1-4)Glc6S = biological target: Gal3S(b1-4)Glc6S
# Summary of the method: as §1
# Gal3S(b1-4)GlcNAc = biological target: Gal3S(b1-4)GlcNAc
# Summary of the method: as §1
# Gal3S(b1-4)GlcNAc6S = biological target: Gal3S(b1-4)GlcNAc6S
# Summary of the method: as §1
# [11] = biological target: Gal3S(b1-4)[Fuc(a1-3)]Glc
# Summary of the method: as §1
# Gal3S4S(b1-4)GlcNAc = biological target: Gal3S4S(b1-4)GlcNAc
# Summary of the method: as §1
# Gal3S6S(b1-4)GlcNAc = biological target: Gal3S6S(b1-4)GlcNAc
# Summary of the method: as §1
# Gal3S6S(b1-4)GlcNAc6S = biological target: Gal3S6S(b1-4)GlcNAc6S
# Summary of the method: as §1
# Gal4S(b1-4)GlcNAc = biological target: Gal4S(b1-4)GlcNAc
# Summary of the method: as §1
# Gal4S6S(b1-4)GlcNAc = biological target: Gal4S6S(b1-4)GlcNAc
# Summary of the method: as §1
# Gal6S(b1-4)Glc = biological target: Gal6S(b1-4)Glc
# Summary of the method: as §1
# Gal6S(b1-4)Glc6S = biological target: Gal6S(b1-4)Glc6S
# Summary of the method: as §1
# Gal6S(b1-4)GlcNAc = biological target: Gal6S(b1-4)GlcNAc
# Summary of the method: as §1
# Gal6S(b1-4)GlcNAc6S = biological target: Gal6S(b1-4)GlcNAc6S
# Summary of the method: as §1
# GalNAc(a1-3)Gal = biological target: GalNAc(a1-3)Gal
# Summary of the method: as §1
# GalNAc(a1-3)GalNAc = biological target: GalNAc(a1-3)GalNAc
# Summary of the method: as §1
# GalNAc(b1-3)Gal = biological target: GalNAc(b1-3)Gal
# Summary of the method: as §1
# [12] = biological target: GalNAc(b1-3)Gal(a1-4)Gal(b1-4)GlcNAc
# Summary of the method: as §1
# GalNAc(b1-3)GalNAc = biological target: GalNAc(b1-3)GalNAc
# Summary of the method: as §1
# GalNAc(b1-4)GlcNAc = biological target: GalNAc(b1-4)GlcNAc
# Summary of the method: as §1
# Glc(a1-4)Glc = biological target: Glc(a1-4)Glc
# Summary of the method: as §1
# Glc(a1-6)Glc(a1-6)Glc = biological target: Glc(a1-6)Glc(a1-6)Glc
# Summary of the method: as §1
# Glc(b1-4)Glc = biological target: Glc(b1-4)Glc
# Summary of the method: as §1
# Glc(b1-6)Glc = biological target: Glc(b1-6)Glc
# Summary of the method: as §1
# GlcA(b1-3)Gal = biological target: GlcA(b1-3)Gal
# Summary of the method: as §1
# GlcA(b1-3)GlcNAc = biological target: GlcA(b1-3)GlcNAc
# Summary of the method: as §1
# GlcA(b1-6)Gal = biological target: GlcA(b1-6)Gal
# Summary of the method: as §1
# [13] = biological target: GlcNAc(a1-3)Gal(b1-4)GlcNAc
# Summary of the method: as §1
# [14] = biological target: GlcNAc(a1-6)Gal(b1-4)GlcNAc
# Summary of the method: as §1
# [15] = biological target: GlcNAc(b1-2)Gal(b1-3)GalNAc
# Summary of the method: as §1
# [16] = biological target: GlcNAc(b1-2)Man(a1-3)[GlcNAc(b1-2)Man(a1-6)]Man(b1-4)GlcNAc(b1-4)GlcNAc
# Summary of the method: as §1
# GlcNAc(b1-3)Gal = biological target: GlcNAc(b1-3)Gal
# Summary of the method: as §1
# [17] = biological target: GlcNAc(b1-3)Gal(b1-3)GalNAc
# Summary of the method: as §1
binder,measurement,setting,value
B1,glycan array binding signal (z-score),[1],-0.565
same,glycan array binding signal (z-score),[2],-0.015
same,glycan array binding signal (z-score),[3],-0.317
same,glycan array binding signal (z-score),[4],-0.7
same,glycan array binding signal (z-score),[5],0.848
same,glycan array binding signal (z-score),[6],-0.353
same,glycan array binding signal (z-score),[7],-0.128
same,glycan array binding signal (z-score),[8],-0.475
same,glycan array binding signal (z-score),[9],0.394
same,glycan array binding signal (z-score),Gal3S(b1-3)GalNAc,-0.144
same,glycan array binding signal (z-score),Gal3S(b1-3)GlcNAc,0.003
same,glycan array binding signal (z-score),[10],0.202
same,glycan array binding signal (z-score),Gal3S(b1-4)Glc,-0.02
same,glycan array binding signal (z-score),Gal3S(b1-4)Glc6S,1.01
same,glycan array binding signal (z-score),Gal3S(b1-4)GlcNAc,-0.271
same,glycan array binding signal (z-score),Gal3S(b1-4)GlcNAc6S,2.02
same,glycan array binding signal (z-score),[11],-0.477
same,glycan array binding signal (z-score),Gal3S4S(b1-4)GlcNAc,0.949
same,glycan array binding signal (z-score),Gal3S6S(b1-4)GlcNAc,0.527
same,glycan array binding signal (z-score),Gal3S6S(b1-4)GlcNAc6S,11.1
same,glycan array binding signal (z-score),Gal4S(b1-4)GlcNAc,0.113
same,glycan array binding signal (z-score),Gal4S6S(b1-4)GlcNAc,2.49
same,glycan array binding signal (z-score),Gal6S(b1-4)Glc,0.061
same,glycan array binding signal (z-score),Gal6S(b1-4)Glc6S,1.8
same,glycan array binding signal (z-score),Gal6S(b1-4)GlcNAc,-0.11
same,glycan array binding signal (z-score),Gal6S(b1-4)GlcNAc6S,1.68
same,glycan array binding signal (z-score),GalNAc(a1-3)Gal,-0.701
same,glycan array binding signal (z-score),GalNAc(a1-3)GalNAc,0.257
same,glycan array binding signal (z-score),GalNAc(b1-3)Gal,-0.876
same,glycan array binding signal (z-score),[12],-1.06
same,glycan array binding signal (z-score),GalNAc(b1-3)GalNAc,-0.626
same,glycan array binding signal (z-score),GalNAc(b1-4)GlcNAc,-0.792
same,glycan array binding signal (z-score),Glc(a1-4)Glc,-0.44
same,glycan array binding signal (z-score),Glc(a1-6)Glc(a1-6)Glc,-0.369
same,glycan array binding signal (z-score),Glc(b1-4)Glc,0.137
same,glycan array binding signal (z-score),Glc(b1-6)Glc,-0.076
same,glycan array binding signal (z-score),GlcA(b1-3)Gal,-0.73
same,glycan array binding signal (z-score),GlcA(b1-3)GlcNAc,0.215
same,glycan array binding signal (z-score),GlcA(b1-6)Gal,0.323
same,glycan array binding signal (z-score),[13],-0.142
same,glycan array binding signal (z-score),[14],-0.417
same,glycan array binding signal (z-score),[15],-0.911
same,glycan array binding signal (z-score),[16],-0.797
same,glycan array binding signal (z-score),GlcNAc(b1-3)Gal,0.667
same,glycan array binding signal (z-score),[17],-0.301

# Reprinted from the entries so far for reference:
binder,measurement,setting,value
B1,glycan array binding signal (z-score),Gal3S(b1-4)GlcNAc,-0.271
same,glycan array binding signal (z-score),Gal3S(b1-4)GlcNAc6S,2.02
